Data reported in PubChem BioAssay AID1347075 (National Center for Advancing Translational Sciences (NCATS), 2019).
“And” between values parts separate entries of the source, which are not always exact repeats. Equal values may be shown once. Among all 400,000 compounds or so, about 5,500 (1.4%) were called active. Inconclusive results, whose numbers are uncertain, are shown with a selection of clear calls. Calls follow the shape of the dose curve; as a rule, active = well fitted cell-killing curve with a large enough effect; inconclusive = small, poorly fitted or top-dose-only effect, or effect the other way; inactive = flat fitted curve, though single readings scatter. Potencies of inconclusive entries are doubtful fits and often do not repeat.

Assay: qHTS assay for MDR1-selective chemotherapeutics: Primary screen using the parental adenocarcinoma cell KB-3-1; also: nearly all actives have a fitted effect of over 60% in size
Settings: KB-3-1 viability, CellTiter-Glo ATP luminescence, 72 h; activity change, negative = cytotoxic: at 46.1 µM (top of the series)
Procedure, shortened: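 Screening of KB-3-1 cells (DMEM, 10% FBS, phenol-red free) ran from lowest to highest compound concentration; after 72 h at 37 °C viability was read luminescently and curves fitted.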
% is scaled to controls: 0 for no effect and ±100 for the full control effect; potency is read from the fitted curve at half-maximal effect.

Row | Structure (SMILES) | activity change, negative = cytotoxic | Potency
1 | COc1ccc2ncc3c(-c4ccc(C)c(C)c4)nn(CC(=O)Nc4ccccc4)c3c2c1 | inactive: 3.48% | 
2 | COc1cc(C(=O)NCCc2cn3ccc(C)cc3n2)cc(OC)c1OC |  | inconclusive: 16.4 µM [cytotoxic, partial curve]
3 | COc1ccc(OC)c(NS(=O)(=O)c2ccc3[nH]c(=O)[nH]c3c2)c1 |  | inconclusive: 23.1 µM [cytotoxic, partial curve, poor fit]
4 | O=S(=O)(Nc1ccc(-n2cccc2)cc1)c1ccc(Cl)cc1Cl | inactive: 3.39% | 
5 | O=C(CSc1nnnn1Cc1ccccc1)c1ccccc1 | inactive: -7.26% | 
6 | O=C(Nc1cc2c3c(c1)CC(=O)N3CCC2)c1ccccc1F | inconclusive: 39.6% | 
7 | O=C(Nc1ccccc1)c1nnsc1S(=O)(=O)c1ccc(Cl)cc1 |  | inconclusive: 20.6 µM [cytotoxic, single point]
8 | CCOc1ccc(S(=O)(=O)Nc2cc(SCC(=O)O)c(O)c3ccccc23)cc1 |  | inconclusive: 18.4 µM [cytotoxic, single point]
9 | Cc1n[nH]c(C)c1NC(=O)CSc1nnnn1-c1cccc(F)c1 | inactive: 1.61% | 
10 | COc1ccc(N(C(=O)C2CCCCC2)S(=O)(=O)c2cccc3cccnc23)cc1 |  | inconclusive: 13 µM [rising, single point]
11 | Fc1ccc(-c2nnc(-c3ccc(Cl)cc3Cl)o2)cc1 |  | inconclusive: 0.206 µM [rising, full curve]
12 | Cc1cccn2c(=O)c3cc(C#N)c(=N)n(CCCN4CCOCC4)c3nc12 |  | inconclusive: 18.4 µM [rising, single point]
13 | S=C(NCCc1ccc(Cl)cc1)Nc1ccc(Cl)cc1Cl |  | inconclusive: 29.1 µM [cytotoxic, single point]
14 | Cn1c(C=O)c(C#Cc2ccccc2)c2ccccc21 |  | inconclusive: 29.1 µM [cytotoxic, single point]
15 | C=C1C=C(C)n2ncc(C(=O)Nc3ccc(NC(C)=O)c(Cl)c3)c2N1 |  | inconclusive: 0.206 µM [rising, partial curve, poor fit]
16 | CCCCOc1ccc(CSc2nc(C)[nH]c2[N+](=O)[O-])cc1[N+](=O)[O-] |  | inconclusive: 29.1 µM [cytotoxic, single point]
17 | O=c1c2c3c(sc2nc(N2CCNCC2)n1CCc1ccccc1)CCCCC3 | inactive: 17.3% | 
18 | COc1ccc(Br)cc1C=NNS(=O)(=O)c1ccc(C)cc1 |  | inconclusive: 16.4 µM [cytotoxic, partial curve]
19 | CN(C)S(=O)(=O)c1ccc(Cl)c(NC(=O)CSc2nnnn2-c2ccc(O)cc2)c1 |  | inconclusive: 16.4 µM [cytotoxic, single point]
20 | COc1ccc(CC(=O)Nc2cc(S(=O)(=O)N3CCOCC3)ccc2N2CCOCC2)cc1OC |  | inconclusive: 0.0041 µM [rising, full curve]
21 | CCC(C(=O)Nc1cc(Cl)ccc1OC)n1nc(-c2ccccc2)ccc1=O (centres undefined) |  | inconclusive: 20.6 µM [cytotoxic, single point]
22 | Cc1ccc(SCc2nc3ccccc3[nH]2)cc1 | inactive: 2.49% | 

Row | Structure (SMILES) | activity change, negative = cytotoxic | Potency
23 | COc1cc(/C=C/C(=O)c2cccc([N+](=O)[O-])c2)cc(OC)c1OC |  | inconclusive: 20.6 µM [cytotoxic, single point]
24 | CN(C)CC(C(=O)c1ccccc1)c1ccccc1 (centres undefined) |  | inconclusive: 29.1 µM [cytotoxic, single point]
25 | CC(C)COP(=O)(c1ccc(N(C)C)cc1)C(O)c1ccc(Br)cc1 (centres undefined) | inactive: -16.4% | 
26 | CCOC(=O)c1c(NC(=O)COc2ccccc2C#N)sc2c1CC(C)(C)NC2(C)C |  | inconclusive: 29.1 µM [cytotoxic, single point]
27 | COc1ccc(OC)c(/C=C/C(=O)OCC(=O)NCc2ccccc2)c1 | inactive: 4.12% | 
28 | CCCCC1=CC2=C(c3ccco3)C(=O)C(C)(OC(=O)c3ccc(OC)cc3)C(=O)C2=CN1CC(C)C (centres undefined) | inactive: 25.6% | 
29 | C[C@@H]1CN([C@@H](C)CO)C(=O)c2cc(NC(=O)c3ccccc3)ccc2O[C@@H](C)CCCCO[C@@H]1CN(C)Cc1ccc(C(F)(F)F)cc1 |  | inconclusive: 32.6 µM [cytotoxic, single point]
30 | CC(=O)c1ccc(S(=O)(=O)Nc2cccc(-c3ccc(N4CCCCCC4)nn3)c2)cc1 |  | inconclusive: 29.1 µM [cytotoxic, single point]
31 | Cc1ccc(-n2nc(C)c(NC(=O)CCl)c2C)cc1 |  | inconclusive: 23.1 µM [cytotoxic, single point]
32 | Cc1ccc(Cl)cc1-n1ncc2c(NC3CCCCCC3)ncnc21 |  | active: 20.6 µM
33 | O=C1c2ccccc2C2(c3ccccc3)N1CCN2C(=O)C(Cl)(Cl)Cl (centres undefined) |  | inconclusive: 29.1 µM [cytotoxic, single point]
34 | O=C(O)c1cc(-n2c(/C=C\c3ccc(F)cc3)nc3ccccc3c2=O)ccc1Cl |  | inconclusive: 18.4 µM [cytotoxic, single point]
35 | Cc1cccc(N2CCN(CCNC(=O)C3COc4ccccc4C3)CC2)c1C (centres undefined) | inactive: 0.155% | 
36 | CCc1ccc(O)c(CNCCNCc2cc(CC)ccc2O)c1 |  | inconclusive: 18.4 µM [cytotoxic, single point]
37 | COc1ccc(-c2nnc(SCc3nc4ccccc4s3)n2C(C)C)cc1 |  | inconclusive: 29.1 µM [cytotoxic, single point]
38 | Cc1nc(NC(=O)CSc2ccc(-c3nc4ccccc4[nH]3)cn2)sc1C | inactive: 0.329% | 
39 | CSc1ccc(CCNC(=O)CCc2c(C)nc3c(c(C)nn3-c3ccccc3)c2C)cc1 | inactive: 8.18% | 
40 | CN1OC[C@@H]2CN(C(=O)c3cccc4ccccc34)[C@H](c3ccccc3Br)C[C@@H]21 | inactive: 0.0497% | 
41 | Nc1ccc(Sc2nc3ccccc3[nH]2)cc1 |  | inconclusive: 18.4 µM [cytotoxic, single point]
42 | CCC(=O)Nc1nnc(SCC(=O)Nc2ccc3c(c2)OCCO3)s1 |  | inconclusive: 4.11 µM [rising, full curve, poor fit]
43 | Cc1ccccc1-c1nsc(SCC(=O)Nc2ccc3c(c2)OCO3)n1 |  | inconclusive: 32.6 µM [cytotoxic, single point]
44 | Cn1nnnc1Sc1ncnc2scc(-c3ccc(F)cc3)c12 |  | inconclusive: 29.1 µM [cytotoxic, partial curve, poor fit] and active: 8.2 µM

Laid out differently: results already given.
Row,Structure (SMILES),"activity change, negative = cytotoxic",Potency
23,COc1cc(/C=C/C(=O)c2cccc([N+](=O)[O-])c2)cc(OC)c1OC,,"inconclusive: 20.6 µM [cytotoxic, single point]"
24,CN(C)CC(C(=O)c1ccccc1)c1ccccc1 (centres undefined),,"inconclusive: 29.1 µM [cytotoxic, single point]"
25,CC(C)COP(=O)(c1ccc(N(C)C)cc1)C(O)c1ccc(Br)cc1 (centres undefined),inactive: -16.4%,
26,CCOC(=O)c1c(NC(=O)COc2ccccc2C#N)sc2c1CC(C)(C)NC2(C)C,,"inconclusive: 29.1 µM [cytotoxic, single point]"
27,COc1ccc(OC)c(/C=C/C(=O)OCC(=O)NCc2ccccc2)c1,inactive: 4.12%,
28,CCCCC1=CC2=C(c3ccco3)C(=O)C(C)(OC(=O)c3ccc(OC)cc3)C(=O)C2=CN1CC(C)C (centres undefined),inactive: 25.6%,
29,C[C@@H]1CN([C@@H](C)CO)C(=O)c2cc(NC(=O)c3ccccc3)ccc2O[C@@H](C)CCCCO[C@@H]1CN(C)Cc1ccc(C(F)(F)F)cc1,,"inconclusive: 32.6 µM [cytotoxic, single point]"
30,CC(=O)c1ccc(S(=O)(=O)Nc2cccc(-c3ccc(N4CCCCCC4)nn3)c2)cc1,,"inconclusive: 29.1 µM [cytotoxic, single point]"
31,Cc1ccc(-n2nc(C)c(NC(=O)CCl)c2C)cc1,,"inconclusive: 23.1 µM [cytotoxic, single point]"
32,Cc1ccc(Cl)cc1-n1ncc2c(NC3CCCCCC3)ncnc21,,active: 20.6 µM
33,O=C1c2ccccc2C2(c3ccccc3)N1CCN2C(=O)C(Cl)(Cl)Cl (centres undefined),,"inconclusive: 29.1 µM [cytotoxic, single point]"
34,O=C(O)c1cc(-n2c(/C=C\c3ccc(F)cc3)nc3ccccc3c2=O)ccc1Cl,,"inconclusive: 18.4 µM [cytotoxic, single point]"
35,Cc1cccc(N2CCN(CCNC(=O)C3COc4ccccc4C3)CC2)c1C (centres undefined),inactive: 0.155%,
